Assay results taken from PubChem BioAssay AID248 (DTP/NCI, 2004).
The list does not hold the whole screen: it is rich in T/C values a quarter to a half above the control, in often repeated tests (any T/C) and in doses without a T/C. Other doses and runs of a compound stand elsewhere. T/C gives the treated animals as a percentage of the vehicle group. Some doses have a count of surviving animals in place of a T/C: the source holds a T/C of zero for them, seemingly a mark for toxic or unscored doses. Some doses without a T/C left all or most animals alive at the check, yet need not have been tolerated: the source hardly ever lists a survival T/C far under the control, and the zero likely stands for such cases as well. Counts of survivors are from the toxicity check (mostly the fifth day) where no day follows; animals may have died later. Schedules are NCI's codes, read here as Q, the interval in days (D) or hours (H), X, the number of doses. Some schedule codes hold Z or #, which are not explained here. Where survival is the endpoint, this PubChem deposit counts one and a half times the control or more as active, and values a quarter to a half above the control carry no call in these data; other NCI protocols may use other cut-offs. Some T/C values are followed by the survivors on the day toxicity was checked, most often the fifth; where none is given, no animal had died by that day.

Tested on: L1210 leukemia ip in BDF1 mice, survival T/C
Assay: NCI In Vivo Anticancer Drug Screen. Data for tumor model L1210 Leukemia (intraperitoneal) in B6D2F1 (BDF1) mice
Conditions: T/C endpoint: mean survival time, higher T/C = longer survival
[1] = dose: 150.0 mg/kg/injection, schedule: Q01DX001 (ip), vehicle: saline
[2] = dose: 300.0 mg/kg/injection, schedule: Q01DX001 (ip), vehicle: saline
[3] = dose: 400.0 mg/kg/injection, schedule: Q01DX001 (ip), vehicle: saline
[4] = dose: 12.5 mg/kg/injection, schedule: Q01DX009 (ip), vehicle: saline
[5] = dose: 50.0 mg/kg/injection, schedule: Q04DX003 (ip), vehicle: saline
[6] = dose: 100.0 mg/kg/injection, schedule: Q04DX003 (ip), vehicle: saline
[7] = dose: 400.0 mg/kg/injection, schedule: Q01DX009 (ip), vehicle: saline with Tween-80
[8] = dose: 25.0 mg/kg/injection, schedule: Q01DX009 (ip), vehicle: saline

For `CC(C)CCOP(=S)(N1CC1)N1CC1`, the T/C (dose: 7.5 mg/kg/injection, schedule: Q01DX015 (ip), vehicle: carboxymethylcellulose (CMC)) was 129 % of control, the T/C (dose: 15.0 mg/kg/injection, schedule: Q01DX015 (ip), vehicle: carboxymethylcellulose (CMC)) was 140 % of control and the T/C (dose: 30.0 mg/kg/injection, schedule: Q01DX015 (ip), vehicle: carboxymethylcellulose (CMC)) was 142 % of control. For the same compound, the T/C (dose: 60.0 mg/kg/injection, schedule: Q01DX015 (ip), vehicle: carboxymethylcellulose (CMC)) was 134 % of control [5 of 6 alive], the T/C (dose: 66.6 mg/kg/injection, schedule: Q01DX001 (ip), vehicle: carboxymethylcellulose (CMC)) was 125 % of control and the T/C (dose: 100.0 mg/kg/injection, schedule: Q01DX001 (ip), vehicle: carboxymethylcellulose (CMC)) was 139 % of control. For the same compound, the T/C (dose: 120.0 mg/kg/injection, schedule: Q01DX015 (ip), vehicle: carboxymethylcellulose (CMC)) was 127 % of control, the T/C (dose: 150.0 mg/kg/injection, schedule: Q01DX001 (ip), vehicle: carboxymethylcellulose (CMC)) was 146 % of control and the T/C (dose: 200.0 mg/kg/injection, schedule: Q01DX001 (ip), vehicle: carboxymethylcellulose (CMC)) was 148 % of control. For the same compound, the survivor count (dose: 240.0 mg/kg/injection, schedule: Q01DX015 (ip), vehicle: carboxymethylcellulose (CMC)) was 5 of 6 and the survivor count (dose: 400.0 mg/kg/injection, schedule: Q01DX001 (ip), vehicle: carboxymethylcellulose (CMC)) was 3 of 4.

In the case of `CC([NH-])C(=O)[O-].[K+].[O]=[Co][O-]` (stereo not drawn), the survivor count [1] is reported as 1 of 6 and the survivor count [2] is reported as 0 of 6.

For `N#C/C(=C\c1ccccc1Cl)c1cccc(Cl)c1`, the survivor count (dose: 200.0 mg/kg/injection, schedule: Q01DX009 (ip), vehicle: other) was 6 of 6 and the survivor count (dose: 400.0 mg/kg/injection, schedule: Q01DX009 (ip), vehicle: other) was 6 of 6.

For `CN1CCCCCC1`, the survivor count (dose: 200.0 mg/kg/injection, schedule: Q01DX009 (ip), vehicle: acetone) was 0 of 6.

`COc1ccc2c(c1OC)C1(CCN(C)C)CC(=O)CCC1C=C2` (stereo not drawn) was tested, and the survivor count (dose: 50.0 mg/kg/injection, schedule: Q01DX009 (ip), vehicle: Klucel (hydroxypropylcellulose) (HPC)) was 6 of 6, the survivor count (dose: 100.0 mg/kg/injection, schedule: Q01DX009 (ip), vehicle: Klucel (hydroxypropylcellulose) (HPC)) was 6 of 6 and the survivor count (dose: 200.0 mg/kg/injection, schedule: Q04DX003 (ip), vehicle: Klucel (hydroxypropylcellulose) (HPC)) was 0 of 6. For the same compound, the survivor count (dose: 400.0 mg/kg/injection, schedule: Q04DX003 (ip), vehicle: Klucel (hydroxypropylcellulose) (HPC)) was 0 of 6.

In the case of `CN=C(c1ccc(NC(=O)c2cc(N)cc(C(=O)Nc3ccc(C(=NC)N(C)C)cc3)c2)cc1)N(C)C`, the survivor count (dose: 60.0 mg/kg/injection, schedule: Q01DX Z (ip), vehicle: carboxymethylcellulose (CMC)) is reported as 0 of 6 and the survivor count (dose: 120.0 mg/kg/injection, schedule: Q01DX Z (ip), vehicle: carboxymethylcellulose (CMC)) is reported as 0 of 6.

For `CN=C(NCCCN1CCOCC1)c1ccc(NC(=O)c2ccc(C(=O)Nc3ccc(C(=NC)NCCCN4CCOCC4)cc3)cc2)cc1`, the T/C (dose: 50.0 mg/kg/injection, schedule: Q01DX Z (ip), vehicle: water) was 137 % of control [4 of 6 alive] and the survivor count (dose: 100.0 mg/kg/injection, schedule: Q01DX Z (ip), vehicle: water) was 0 of 6.

In the case of `COC(=O)/C=C/CBr`, the survivor count (dose: 20.0 mg/kg/injection, schedule: Q01DX001 (ip), vehicle: carboxymethylcellulose (CMC)) is reported as 0 of 4, the survivor count (dose: 40.0 mg/kg/injection, schedule: Q01DX001 (ip), vehicle: carboxymethylcellulose (CMC)) is reported as 0 of 4 and the survivor count (dose: 64.0 mg/kg/injection, schedule: Q01DX015 (ip), vehicle: carboxymethylcellulose (CMC)) is reported as 0 of 6. The survivor count (dose: 80.0 mg/kg/injection, schedule: Q01DX001 (ip), vehicle: carboxymethylcellulose (CMC)) was 0 of 4.

In the case of `O=C(CCN1CC=C(c2ccccc2)CC1)c1ccc(F)cc1`, the survivor count (dose: 200.0 mg/kg/injection, schedule: Q01DX001 (ip), vehicle: Klucel (hydroxypropylcellulose) (HPC)) is reported as 3 of 6.

In the case of `CC(=O)OC1C=CCC23C(=O)C=CC(=O)C12C(=O)c1ccccc1C3=O` (stereo not drawn), the survivor count (dose: 75.0 mg/kg/injection, schedule: Q04DX003 (ip), vehicle: saline) is reported as 6 of 6, the survivor count (dose: 150.0 mg/kg/injection, schedule: Q04DX003 (ip), vehicle: saline) is reported as 6 of 6 and the survivor count (dose: 300.0 mg/kg/injection, schedule: Q04DX003 (ip), vehicle: saline) is reported as 6 of 6.

In the case of `CC1(C)OCC(C2OC(=O)C=C2OS(=O)(=O)O)O1` (stereo not drawn), the survivor count [1] is reported as 1 of 6 and the survivor count [2] is reported as 0 of 6.

With `CC(C)(C(=O)O)C(=O)O` the survivor count [3] was 1 of 4.

In the case of `CCCCCCCCCCCC[N+](CCO)(CCO)Cc1ccccc1`, the survivor count [4] is reported as 1 of 6, the survivor count (dose: 25.0 mg/kg/injection, schedule: Q04DX003 (ip), vehicle: saline) is reported as 2 of 6 and the survivor count [5] is reported as 1 of 6. For the same compound, the survivor count [6] was 0 of 6, the survivor count (dose: 200.0 mg/kg/injection, schedule: Q04DX003 (ip), vehicle: saline) was 0 of 6 and the survivor count (dose: 400.0 mg/kg/injection, schedule: Q04DX003 (ip), vehicle: saline) was 0 of 6.

`CCC(C)C1(C)OC1C(=O)OC` (stereo not drawn) was tested, and the survivor count [7] was 6 of 6.

With `[O]=[Cr](=[O])([OH])[O][Cr](=[O])(=[O])[OH]` the survivor count [8] was 4 of 6, the survivor count [5] was 0 of 6 and the survivor count [6] was 0 of 6.

For `Cc1cccc(C)c1C1=NCCN1`, the survivor count (dose: 100.0 mg/kg/injection, schedule: Q01DX009 (ip), vehicle: saline with Tween-80) was 3 of 6, the survivor count (dose: 200.0 mg/kg/injection, schedule: Q01DX009 (ip), vehicle: saline with Tween-80) was 0 of 6 and the survivor count [7] was 0 of 6.

In the case of `COC(=O)c1ccc[n+](CCc2ccc(OC)c(OC)c2)c1`, the survivor count [1] is reported as 3 of 6 and the survivor count [2] is reported as 0 of 6.

With `O=C(O)c1ccc(COc2ccc([N+](=O)[O-])cc2Cl)cc1` the survivor count (dose: 400.0 mg/kg/injection, schedule: Q01DX009 (ip), vehicle: saline sonified) was 5 of 6.

In the case of `CN(C)/C=N\c1ncnc2c1ccn2C1OC(CO)C(O)C1O` (stereo not drawn), the survivor count (dose: 12.5 mg/kg/injection, schedule: Q01DX005 (ip), vehicle: saline) is reported as 6 of 6, the survivor count [4] is reported as 4 of 6 and the survivor count (dose: 25.0 mg/kg/injection, schedule: Q01DX005 (ip), vehicle: saline) is reported as 3 of 6. For the same compound, the survivor count [8] was 1 of 6, the survivor count (dose: 50.0 mg/kg/injection, schedule: Q01DX005 (ip), vehicle: saline) was 0 of 6 and the survivor count (dose: 50.0 mg/kg/injection, schedule: Q01DX009 (ip), vehicle: saline) was 1 of 6.

With `CC1(c2ccccc2)CCC(NN=C(N)N)=NC1` (stereo not drawn) the survivor count (dose: 30.0 mg/kg/injection, schedule: Q01DX Z (ip), vehicle: methylcellulose (MC)) was 3 of 6.

For `ClC1(c2ccccc2)C2CCCCC21` (stereo not drawn), the survivor count [2] was 3 of 6.

`O=C(N/N=C/c1cccc([N+](=O)[O-])c1)C(O)C(O)C(O)C(O)CO` (stereo not drawn) was tested, and the survivor count (dose: 400.0 mg/kg/injection, schedule: Q01DX009 (ip), vehicle: carboxymethylcellulose (CMC)) was 2 of 6.

In the case of `c1ccc(-c2nc(-c3ccccn3)nc(-c3ccccn3)n2)nc1`, the survivor count (dose: 100.0 mg/kg/injection, schedule: Q01DX001 (ip), vehicle: saline) is reported as 3 of 6, the survivor count (dose: 200.0 mg/kg/injection, schedule: Q01DX001 (ip), vehicle: saline) is reported as 0 of 6 and the survivor count [3] is reported as 0 of 6.
